This note sets out measurements from article doi:10.1101/2025.02.20.639268.

By UniProt entry, the sequences of proteins in these tests, tags left out. Where a name states a change or a piece, a line headed by the entry shows the natural chain unless it says otherwise. Chains listed by the source or under a name are the forms on record and can include a tag or linker. Residues count along the entry.
full-length mouse NOTCH1 Myc, wild type, on HEK293T cells (Q01705, residues 19-2531): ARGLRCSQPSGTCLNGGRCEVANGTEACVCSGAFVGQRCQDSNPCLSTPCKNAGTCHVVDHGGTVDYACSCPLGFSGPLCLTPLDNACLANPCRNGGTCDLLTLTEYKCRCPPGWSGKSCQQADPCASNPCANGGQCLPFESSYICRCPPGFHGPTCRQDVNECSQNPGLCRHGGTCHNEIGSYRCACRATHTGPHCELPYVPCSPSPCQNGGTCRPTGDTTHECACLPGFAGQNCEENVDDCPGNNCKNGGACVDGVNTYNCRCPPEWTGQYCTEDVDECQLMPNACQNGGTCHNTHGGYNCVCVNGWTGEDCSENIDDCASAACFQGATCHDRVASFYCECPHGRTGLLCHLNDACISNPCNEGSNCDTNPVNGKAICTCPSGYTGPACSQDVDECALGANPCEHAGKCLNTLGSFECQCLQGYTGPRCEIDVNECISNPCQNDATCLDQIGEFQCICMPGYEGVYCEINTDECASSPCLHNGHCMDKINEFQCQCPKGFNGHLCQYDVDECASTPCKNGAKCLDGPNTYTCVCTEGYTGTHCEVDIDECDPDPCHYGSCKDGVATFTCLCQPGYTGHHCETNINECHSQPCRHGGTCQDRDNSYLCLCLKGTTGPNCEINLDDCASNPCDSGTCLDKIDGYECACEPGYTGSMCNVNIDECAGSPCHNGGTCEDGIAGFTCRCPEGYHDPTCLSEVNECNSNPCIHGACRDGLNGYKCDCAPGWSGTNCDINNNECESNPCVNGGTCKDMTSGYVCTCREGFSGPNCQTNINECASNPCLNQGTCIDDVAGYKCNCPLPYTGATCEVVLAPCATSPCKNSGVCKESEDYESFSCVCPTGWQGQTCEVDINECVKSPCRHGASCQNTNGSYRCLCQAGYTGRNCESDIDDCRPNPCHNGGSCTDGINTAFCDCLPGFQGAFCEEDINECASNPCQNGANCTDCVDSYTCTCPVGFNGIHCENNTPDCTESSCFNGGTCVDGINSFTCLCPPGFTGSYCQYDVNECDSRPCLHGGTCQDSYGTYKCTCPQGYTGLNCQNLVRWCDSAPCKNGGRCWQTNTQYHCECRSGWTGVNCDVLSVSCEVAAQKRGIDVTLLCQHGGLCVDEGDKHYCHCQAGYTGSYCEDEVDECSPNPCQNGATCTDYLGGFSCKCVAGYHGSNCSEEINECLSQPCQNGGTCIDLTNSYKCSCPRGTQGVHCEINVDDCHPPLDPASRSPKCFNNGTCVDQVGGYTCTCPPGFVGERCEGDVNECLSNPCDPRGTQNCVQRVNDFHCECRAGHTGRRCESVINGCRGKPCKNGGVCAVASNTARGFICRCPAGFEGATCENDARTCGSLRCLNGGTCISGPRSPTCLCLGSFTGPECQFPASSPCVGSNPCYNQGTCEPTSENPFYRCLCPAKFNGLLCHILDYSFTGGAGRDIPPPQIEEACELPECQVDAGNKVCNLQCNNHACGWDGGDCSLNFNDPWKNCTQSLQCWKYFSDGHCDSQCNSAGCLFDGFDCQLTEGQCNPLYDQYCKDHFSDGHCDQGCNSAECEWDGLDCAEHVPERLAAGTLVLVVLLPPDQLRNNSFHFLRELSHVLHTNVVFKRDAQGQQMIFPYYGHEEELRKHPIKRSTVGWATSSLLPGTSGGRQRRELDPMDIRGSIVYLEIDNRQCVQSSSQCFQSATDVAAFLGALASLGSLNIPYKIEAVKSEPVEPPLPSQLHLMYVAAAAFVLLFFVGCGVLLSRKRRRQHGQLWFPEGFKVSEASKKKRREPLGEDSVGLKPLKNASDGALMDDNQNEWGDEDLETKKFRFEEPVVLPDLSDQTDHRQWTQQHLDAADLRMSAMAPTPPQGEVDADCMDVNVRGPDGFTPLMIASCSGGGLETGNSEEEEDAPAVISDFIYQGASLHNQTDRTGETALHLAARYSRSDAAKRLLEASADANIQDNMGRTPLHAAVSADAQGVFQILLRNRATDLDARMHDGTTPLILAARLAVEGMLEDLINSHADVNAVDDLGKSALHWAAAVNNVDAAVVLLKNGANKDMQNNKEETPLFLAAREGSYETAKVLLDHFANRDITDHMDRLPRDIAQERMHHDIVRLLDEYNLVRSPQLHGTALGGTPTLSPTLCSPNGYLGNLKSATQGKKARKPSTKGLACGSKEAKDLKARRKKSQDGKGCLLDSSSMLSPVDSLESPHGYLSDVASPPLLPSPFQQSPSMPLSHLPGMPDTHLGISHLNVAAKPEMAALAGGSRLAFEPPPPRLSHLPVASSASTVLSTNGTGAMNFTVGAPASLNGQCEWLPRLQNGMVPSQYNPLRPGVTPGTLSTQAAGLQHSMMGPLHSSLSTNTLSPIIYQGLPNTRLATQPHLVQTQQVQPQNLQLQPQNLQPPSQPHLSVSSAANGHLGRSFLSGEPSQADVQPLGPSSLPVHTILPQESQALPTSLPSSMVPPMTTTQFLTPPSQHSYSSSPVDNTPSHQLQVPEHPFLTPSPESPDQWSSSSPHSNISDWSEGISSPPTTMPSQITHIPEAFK
full-length mouse NOTCH1 Myc A396Y mutant, on HEK293T cells (Q01705, form named): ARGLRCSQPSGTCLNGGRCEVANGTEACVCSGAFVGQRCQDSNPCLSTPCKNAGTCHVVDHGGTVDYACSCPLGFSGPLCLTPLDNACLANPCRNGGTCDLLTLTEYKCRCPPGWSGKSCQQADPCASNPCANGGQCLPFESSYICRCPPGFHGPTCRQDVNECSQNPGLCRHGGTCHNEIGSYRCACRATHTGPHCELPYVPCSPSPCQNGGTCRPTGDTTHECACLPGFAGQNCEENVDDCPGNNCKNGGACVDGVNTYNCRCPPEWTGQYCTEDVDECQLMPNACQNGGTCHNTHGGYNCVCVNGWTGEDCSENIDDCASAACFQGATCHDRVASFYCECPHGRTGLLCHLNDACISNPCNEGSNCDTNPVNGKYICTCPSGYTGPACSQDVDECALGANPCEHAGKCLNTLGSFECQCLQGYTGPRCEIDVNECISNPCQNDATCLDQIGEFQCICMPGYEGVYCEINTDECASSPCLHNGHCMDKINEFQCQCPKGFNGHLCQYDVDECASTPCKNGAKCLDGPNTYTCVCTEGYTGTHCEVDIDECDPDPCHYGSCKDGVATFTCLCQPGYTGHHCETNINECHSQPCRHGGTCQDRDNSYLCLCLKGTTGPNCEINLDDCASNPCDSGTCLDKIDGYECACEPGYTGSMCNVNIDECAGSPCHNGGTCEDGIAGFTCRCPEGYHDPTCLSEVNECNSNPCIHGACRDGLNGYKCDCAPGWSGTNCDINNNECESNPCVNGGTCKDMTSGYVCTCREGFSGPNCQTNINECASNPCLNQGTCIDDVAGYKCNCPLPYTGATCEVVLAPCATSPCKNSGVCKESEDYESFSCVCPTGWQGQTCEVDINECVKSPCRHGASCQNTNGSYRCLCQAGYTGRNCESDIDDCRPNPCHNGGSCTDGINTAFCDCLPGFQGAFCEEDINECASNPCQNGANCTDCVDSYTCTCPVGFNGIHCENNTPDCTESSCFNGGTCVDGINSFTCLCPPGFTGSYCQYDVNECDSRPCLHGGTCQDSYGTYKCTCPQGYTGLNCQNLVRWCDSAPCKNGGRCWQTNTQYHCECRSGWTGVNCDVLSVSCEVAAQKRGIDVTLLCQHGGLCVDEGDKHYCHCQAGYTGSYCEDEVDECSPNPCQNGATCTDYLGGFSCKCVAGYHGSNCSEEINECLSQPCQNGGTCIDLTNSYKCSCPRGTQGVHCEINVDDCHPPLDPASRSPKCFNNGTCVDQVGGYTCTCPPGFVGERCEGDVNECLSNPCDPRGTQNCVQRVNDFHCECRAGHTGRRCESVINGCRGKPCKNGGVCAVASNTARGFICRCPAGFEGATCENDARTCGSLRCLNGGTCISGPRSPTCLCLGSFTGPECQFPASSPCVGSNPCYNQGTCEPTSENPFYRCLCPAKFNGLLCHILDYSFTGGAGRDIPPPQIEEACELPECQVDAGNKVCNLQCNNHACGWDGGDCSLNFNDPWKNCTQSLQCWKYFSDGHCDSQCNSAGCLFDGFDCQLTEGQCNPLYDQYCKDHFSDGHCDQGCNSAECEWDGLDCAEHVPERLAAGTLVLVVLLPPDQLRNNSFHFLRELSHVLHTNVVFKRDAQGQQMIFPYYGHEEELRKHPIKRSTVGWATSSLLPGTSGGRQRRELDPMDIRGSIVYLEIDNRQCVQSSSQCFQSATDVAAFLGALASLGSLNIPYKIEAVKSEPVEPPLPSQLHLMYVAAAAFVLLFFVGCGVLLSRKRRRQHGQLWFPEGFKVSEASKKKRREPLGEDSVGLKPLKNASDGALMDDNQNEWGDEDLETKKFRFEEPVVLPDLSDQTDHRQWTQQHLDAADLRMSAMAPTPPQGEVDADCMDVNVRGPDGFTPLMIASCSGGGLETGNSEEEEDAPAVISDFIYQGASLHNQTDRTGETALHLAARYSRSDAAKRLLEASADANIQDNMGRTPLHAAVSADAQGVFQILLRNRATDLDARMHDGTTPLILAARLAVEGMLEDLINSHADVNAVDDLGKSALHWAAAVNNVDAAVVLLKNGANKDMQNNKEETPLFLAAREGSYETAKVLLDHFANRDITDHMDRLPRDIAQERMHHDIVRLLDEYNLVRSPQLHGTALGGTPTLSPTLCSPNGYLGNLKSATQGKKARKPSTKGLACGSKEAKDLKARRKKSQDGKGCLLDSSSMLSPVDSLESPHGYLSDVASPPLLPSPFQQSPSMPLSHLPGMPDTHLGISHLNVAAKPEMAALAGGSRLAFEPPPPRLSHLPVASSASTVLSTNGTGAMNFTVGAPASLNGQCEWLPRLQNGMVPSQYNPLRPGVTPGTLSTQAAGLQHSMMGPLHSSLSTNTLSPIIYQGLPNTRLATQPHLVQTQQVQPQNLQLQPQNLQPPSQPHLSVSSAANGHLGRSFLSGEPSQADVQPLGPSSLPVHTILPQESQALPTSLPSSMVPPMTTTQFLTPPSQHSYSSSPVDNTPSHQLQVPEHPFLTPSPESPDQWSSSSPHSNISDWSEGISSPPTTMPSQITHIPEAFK
UniProt P97677, residues 18-537: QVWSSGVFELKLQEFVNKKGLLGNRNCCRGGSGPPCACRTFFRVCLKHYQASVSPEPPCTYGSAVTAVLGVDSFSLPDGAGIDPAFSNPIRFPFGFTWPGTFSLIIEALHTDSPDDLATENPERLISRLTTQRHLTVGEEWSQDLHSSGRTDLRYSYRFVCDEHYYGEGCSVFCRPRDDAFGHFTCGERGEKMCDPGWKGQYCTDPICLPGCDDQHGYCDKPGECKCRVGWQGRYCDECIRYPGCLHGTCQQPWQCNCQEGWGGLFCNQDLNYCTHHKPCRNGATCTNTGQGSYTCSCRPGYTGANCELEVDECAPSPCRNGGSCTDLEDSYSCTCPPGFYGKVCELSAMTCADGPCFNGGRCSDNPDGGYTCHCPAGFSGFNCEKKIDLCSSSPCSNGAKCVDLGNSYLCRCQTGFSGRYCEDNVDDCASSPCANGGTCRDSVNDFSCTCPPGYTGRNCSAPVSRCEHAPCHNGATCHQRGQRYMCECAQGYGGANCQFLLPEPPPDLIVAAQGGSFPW
UniProt Q9NR61, residues 27-529: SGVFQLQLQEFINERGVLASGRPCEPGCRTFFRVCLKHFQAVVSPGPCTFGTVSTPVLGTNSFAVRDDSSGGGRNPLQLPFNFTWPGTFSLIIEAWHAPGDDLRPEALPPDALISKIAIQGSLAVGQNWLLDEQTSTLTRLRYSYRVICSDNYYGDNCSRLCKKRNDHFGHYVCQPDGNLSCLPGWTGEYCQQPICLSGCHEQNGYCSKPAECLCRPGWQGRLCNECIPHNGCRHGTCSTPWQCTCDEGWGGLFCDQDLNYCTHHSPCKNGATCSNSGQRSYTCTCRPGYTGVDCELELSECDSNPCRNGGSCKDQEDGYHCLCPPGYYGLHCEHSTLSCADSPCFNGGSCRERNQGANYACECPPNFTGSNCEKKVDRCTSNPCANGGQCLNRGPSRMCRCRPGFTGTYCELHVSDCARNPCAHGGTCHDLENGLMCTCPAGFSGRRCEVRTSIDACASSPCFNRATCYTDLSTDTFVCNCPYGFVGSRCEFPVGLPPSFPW

Results are given in words; binding and its absence hold for the method and conditions named. Some binding calls cover weakened binding; strength is not graded here.

Common to all, as to assay: flow cytometry on cells
Assay [1] concerns the target full-length mouse NOTCH1 Myc A396Y mutant, on HEK293T cells (mouse) (UniProt Q01705).
Assay [2] concerns the target full-length mouse NOTCH1 Myc A396F mutant, on HEK293T cells (mouse) (UniProt Q01705).
The target in assay [3] is full-length mouse NOTCH1 Myc, wild type, on HEK293T cells (mouse) (UniProt Q01705).

On to “Rat DLL1-Fc (from UniProt P97677) (Fc fusion)”, for which the binding result in assay [1], in assay [2] and in assay [3] was “binds” in each case.
With “human DLL4-Fc (from UniProt Q9NR61) (Fc fusion)”, the binding result in assay [1], in assay [2] and in assay [3] was “binds” throughout.
Turning to “human JAG1-Fc (from UniProt P78504) (Fc fusion)”, the binding result in assay [3] is reported as “binds”.
